{
  "source": "patent US20250325531A1",
  "about": "“TREATMENT OF SYSTOLIC DYSFUNCTION” (MyoKardia, Inc., priority 2024, published 2025)",
  "experiment": "Single ascending oral dose pharmacokinetics in healthy volunteers (plasma and urine, LC MS/MS)",
  "format": "in vivo, human",
  "excerpt": "This example describes the first-in-human study of Compound I. Based on its mechanism of action, Compound I may offer a targeted therapy for patients with DCM caused by genetic or nongenetic mechanisms. The study was a randomized, double-blind, placebo-controlled, sequential group, single-ascending (oral) dose study in healthy subjects aged 18-55 years. Eight dosing cohorts, each comprising eight healthy subjects, were enrolled. Within each cohort, subjects were randomized 6:2 to Compound I: placebo.\nSubjects were resident at the clinical site for up to 5 days and 4 nights, from Day-1 (the day before dosing) to Day 4, and received a single dose of Compound I or placebo on Day 1. ECG telemetry was initiated 1 hour predose and continued through 48 hours postdose (Day 3). Any subject with a predose resting HR ≥80 beats per minute was considered ineligible and not treated. […] Subjects returned for a safety follow-up visit 7 days (+1 day) after dosing.\nAll randomized study subjects received either Compound I or matching placebo as a single oral dose after a fasting period of at least 6 hours. Compound I drug substance is a crystalline, free-base, synthetic molecule with a molecular weight of 435.4 g/mol.\nCompound I was provided as a powder for oral suspension. Placebo was provided as calcium carbonate powder. Both treatments were dosed orally as a suspension. The suspension was made using Ora-Plus® suspending vehicle (Perrigo) and a cherry syrup flavoring vehicle (Humco), mixed 50% to 50%. The suspension was followed by approximately 100 mL water. The suspension was made up within 14 days from the time in which it was dosed which was consistent with the stability data on the suspension. The suspension was made up so the volume administered to the subjects who received Compound I was the same at 20 mL.\nEach subject received a dose according to the cohort in which they were enrolled. Cohorts were enrolled sequentially, with each cohort receiving an escalated dose of Compound I. The doses administered were 3 mg, 10 mg, 25 mg, 50 mg, 100 mg, 175 mg, 350 mg, and 525 mg, respectively.\nThe concentrations of Compound I in human plasma and urine were quantitated by high performance liquid chromatography with tandem mass spectrometric detection (LC MS/MS) (Biological sample analysis study report Alturas AD17-726). Plasma samples were extracted by protein precipitation with acetonitrile containing internal standard MYK-5654. The calibration curves were linear over concentration range of 0.500 to 1000 ng/mL with a lower limit of quantification (LLOQ) of 0.500 ng/mL.\nThe PK Population included all subjects who received Compound I. Blood samples were collected for PK assessments. The actual timing of the samples may have been modified and/or up to an additional 2 samples may have been requested by the SRC after review of the data from previous cohorts. It was important that PK sampling occurred as closely as possible to the scheduled time (+10%). Both blood and urine samples were used for PK assessments.\nIn addition, for subjects who received placebo, a single plasma sample near the predicted tmax of Compound I was evaluated to confirm the lack of circulating Compound I. Plasma concentration data for Compound I was summarized using descriptive statistics, including mean, standard deviation (SD), median, minimum, and maximum values, and percent coefficient of variation. Other PK parameters included (but were not limited to) Cmax, tmax, AUC, t1/2, and MRT. Additionally, the apparent terminal-phase terminal half-life was calculated. The dose proportionality of AUC and Cmax was explored.",
  "note": "At least one read-out could not be matched to a standard name with certainty.",
  "data": [
    {"smiles": "Cn1cc(S(=O)(=O)[C@@](C)(F)C2CCN(C(=O)Nc3ccon3)CC2)c(C(F)F)n1", "note": "[Compound I, (R)-4-(1-((3-(difluoromethyl)-1-methyl-1H-pyrazol-4-yl)sulfonyl)-1-fluoroethyl)-N-(isoxazol-3-yl) piperidine-1-carboxamide]", "values": [
      {"measurement": "Vz/F Geometric Mean", "setting": "3 mg", "value": 66.54, "unit": "L"},
      {"measurement": "Vz/F Geometric Mean", "setting": "25 mg", "value": 67.29, "unit": "L"},
      {"measurement": "Vz/F Median", "setting": "25 mg", "value": 66.45, "unit": "L"},
      {"measurement": "Vz/F Mean", "setting": "100 mg", "value": 77.91, "unit": "L"},
      {"measurement": "Vz/F Geometric Mean", "setting": "350 mg", "value": 98.26, "unit": "L"},
      {"measurement": "Vz/F Median", "setting": "350 mg", "value": 98.36, "unit": "L"}
    ]}
  ]
}
